Publication PMC4756710
No constants are given. Whether binding was seen depends on the method and setting. In cells and extracts the contact can be indirect. Tags and fused reporters may be left off the sequences shown.

Amino acid sequences for entries named in this document (tags omitted).
UniProt Q9GZV5: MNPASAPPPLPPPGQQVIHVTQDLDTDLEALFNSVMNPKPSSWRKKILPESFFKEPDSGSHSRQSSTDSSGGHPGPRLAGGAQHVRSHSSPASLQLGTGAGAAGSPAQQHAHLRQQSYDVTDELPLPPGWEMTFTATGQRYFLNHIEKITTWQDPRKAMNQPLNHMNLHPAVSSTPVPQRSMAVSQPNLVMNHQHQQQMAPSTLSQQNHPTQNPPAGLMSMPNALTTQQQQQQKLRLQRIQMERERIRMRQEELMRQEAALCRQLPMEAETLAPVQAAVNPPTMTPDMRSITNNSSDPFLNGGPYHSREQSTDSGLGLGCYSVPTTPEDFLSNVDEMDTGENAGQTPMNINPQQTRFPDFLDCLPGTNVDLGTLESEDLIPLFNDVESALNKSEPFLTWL

Biological target: T1, HA-tagged WT ZEB1, full length, in vitro synthesized (UniProt P37275)
T1 sequence: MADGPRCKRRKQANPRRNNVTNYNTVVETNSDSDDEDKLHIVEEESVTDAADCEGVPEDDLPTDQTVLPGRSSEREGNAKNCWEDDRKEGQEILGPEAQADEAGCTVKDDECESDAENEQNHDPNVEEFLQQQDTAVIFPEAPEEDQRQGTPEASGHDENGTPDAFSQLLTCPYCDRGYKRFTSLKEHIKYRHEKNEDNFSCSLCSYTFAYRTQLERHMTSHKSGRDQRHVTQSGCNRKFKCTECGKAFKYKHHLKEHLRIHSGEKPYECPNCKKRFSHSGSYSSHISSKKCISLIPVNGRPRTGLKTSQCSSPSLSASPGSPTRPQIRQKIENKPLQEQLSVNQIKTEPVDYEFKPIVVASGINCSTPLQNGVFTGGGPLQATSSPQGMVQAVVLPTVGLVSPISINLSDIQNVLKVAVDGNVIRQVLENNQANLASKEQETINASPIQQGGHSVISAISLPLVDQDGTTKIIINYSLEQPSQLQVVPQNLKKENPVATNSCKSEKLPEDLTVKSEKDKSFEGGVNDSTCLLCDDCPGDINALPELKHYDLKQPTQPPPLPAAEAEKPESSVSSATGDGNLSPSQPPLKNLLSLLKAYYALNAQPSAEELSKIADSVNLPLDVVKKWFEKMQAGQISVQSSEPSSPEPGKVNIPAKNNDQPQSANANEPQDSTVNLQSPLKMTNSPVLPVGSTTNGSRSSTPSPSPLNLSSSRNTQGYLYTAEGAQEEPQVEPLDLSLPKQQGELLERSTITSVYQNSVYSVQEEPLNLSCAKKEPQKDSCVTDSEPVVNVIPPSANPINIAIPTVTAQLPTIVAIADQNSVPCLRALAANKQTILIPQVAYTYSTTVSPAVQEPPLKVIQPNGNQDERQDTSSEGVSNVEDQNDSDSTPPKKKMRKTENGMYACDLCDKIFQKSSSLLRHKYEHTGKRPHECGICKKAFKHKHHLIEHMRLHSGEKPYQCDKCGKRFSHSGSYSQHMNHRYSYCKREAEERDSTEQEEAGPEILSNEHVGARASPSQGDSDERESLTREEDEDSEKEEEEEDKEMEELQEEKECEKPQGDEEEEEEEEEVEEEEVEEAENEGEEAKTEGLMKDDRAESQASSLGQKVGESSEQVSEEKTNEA
Assay: pull-down; in vitro translated proteins (wheat germ) incubated in pull-down buffer (250 mM sucrose, 10 mM MOPS/KOH pH 7.2, 80 mM KCl, 5 mM MgCl2, 5 mM KH2PO4) 1 h at 37 °C; HA-ZEB1 held on anti-HA affinity matrix, 1 h at 4 °C, five washes; western blot (anti-His)

binding: no binding
Substance: His-tagged WT TAZ, full length, in vitro synthesized (from UniProt Q9GZV5 1-400)
